Measured values published in PubChem BioAssay.
The list shows a part of the results. These are further read-outs of the screen, such as a control signal, another cell line or another target. No call is given for them. The list favours compounds with an active or inconclusive main result. Bridge positions count the residues as written; N and C are the ends. Square brackets hold non-standard residues; d marks the D form. Peptide text beside a SMILES is read from it. * marks the point of attachment. Octanoyl(6-Me) = CCC(C)CCCCC(=O)*; Dab = NCC[CH](N)C(=O)O

Test: enhancers of SMN2 over SMN1 splicing, cell-based, SMN2/SMN1 luciferase reporters (AID 1598)
Details: SMN2 vs SMN1 luciferase splicing reporter cells, at 10 µM; SMN1 luciferase ratio: measured here: SMN1 luciferase reporter average; SMN2 luciferase ratio: measured here: SMN2 luciferase reporter average, stronger effect = higher value

SMILES	SMN2 luciferase ratio	SMN1 luciferase ratio
O=C1C(CCS(=O)c2ccccc2)C(=O)N(c2ccccc2)N1c1ccccc1 (stereo not drawn)	0.95	0.87
COc1cc(CNC(=O)CCCC/C=C/C(C)C)ccc1O	0.78	0.9
CC(C)NCC(O)COc1cccc2ccccc12 (stereo not drawn)	0.8	0.75
CCC(=O)OCC(=O)C1(OC(=O)CC)C(C)CC2C3CCC4=CC(=O)C=CC4(C)C3(Cl)C(O)CC21C (stereo not drawn)	0.95	0.92
CC1=C(CC(=O)O)c2cc(F)ccc2/C1=C\c1ccc(S(C)=O)cc1 (stereo not drawn)	0.91	0.95
CN(C)CCCO[C@H]1[C@@H](C(O)CO)OC2OC(C)(C)O[C@@H]21 (stereo partly drawn)	0.91	0.87
CC(CNC(=O)c1ccccc1)C(=O)OCC(=O)[C@@]12OC(C)(C)O[C@@H]1CC1C3CCC4=CC(=O)C=C[C@]4(C)[C@@]3(F)[C@@H](O)C[C@@]12C (stereo partly drawn)	0.89	1.08
CON	0.89	0.88
CC(=O)O[C@]1(C(C)=O)CCC2C3C[C@H](C)C4=CC(=O)CC[C@]4(C)C3CC[C@@]21C (stereo partly drawn)	0.92	0.97
CC(COc1ccccc1)NC(C)[C@H](O)c1ccc(O)cc1 (stereo partly drawn)	0.95	0.93
c1ccc2[nH]c(-c3cscn3)nc2c1	1	1.16
Nc1ccc(S(=O)(=O)c2ccc(N)cc2)cc1	0.91	0.92
COC(=O)[C@H]1[C@H]2C[C@@H]3c4[nH]c5cc(OC)ccc5c4CCN3C[C@H]2C[C@@H](OC(=O)c2cc(OC)c(OC)c(OC)c2)[C@@H]1OC	0.82	0.87
NC(N)=Nc1nc(CSCC/C(N)=N\S(N)(=O)=O)cs1	0.91	0.92
COc1ccc2c(c1)c(CC(=O)OCC(=O)O)c(C)n2C(=O)c1ccc(Cl)cc1	0.96	0.88
CCC(C)CCCCC(=O)NC(CCN)C(=O)NC(C(=O)NC(CCN)C(=O)NC1CCNC(=O)C(C(C)O)NC(=O)C(CCN)NC(=O)C(CCN)NC(=O)C(CC(C)C)NC(=O)C(Cc2ccccc2)NC(=O)C(CCN)NC1=O)C(C)O (stereo not drawn) ({Octanoyl(6-Me)}-[Dab]T[Dab][Dab][Dab]FL[Dab][Dab]T; lactam 4-C; configuration not given here)	0.9	0.85
CC(=O)OCC(COC(C)=O)OC(C)=O	1.01	0.93
C[C@@H]1O[C@@H](OC[C@H]2O[C@@H](Oc3c(-c4ccc(O)c(O)c4)oc4cc(O)cc(O)c4c3=O)[C@H](O)[C@@H](O)[C@@H]2O)[C@H](O)[C@H](O)[C@H]1O	0.74	0.88
CN/C(=C\[N+](=O)[O-])NCCSCc1ccc(CN(C)C)o1	0.81	0.94
CCC(=O)c1ccc2c(c1)N(CC(C)N(C)C)c1ccccc1S2 (stereo not drawn)	1	0.86

SMILES	SMN2 luciferase ratio	SMN1 luciferase ratio
CCCN(CCC)S(=O)(=O)c1ccc(C(=O)O)cc1	0.99	0.89
CC(=O)CC(c1ccccc1)c1c(O)c2ccccc2oc1=O (stereo not drawn)	0.89	0.95
CC(C(=O)O)c1ccc(C(=O)c2cccs2)cc1 (stereo not drawn)	0.84	0.92
NC(=O)c1cnccn1	0.99	0.9
CN(Cc1cnc2nc(N)nc(N)c2n1)c1ccc(C(=O)N[C@@H](CCC(=O)O)C(=O)O)cc1	0.34	0.27
Clc1cc(Cl)c(OCC#CI)cc1Cl	0.92	0.9
CNCCCN1c2ccccc2CCc2ccccc21	0.94	0.94
CN=C(NC#N)NCCSCc1nc[nH]c1C	0.88	0.87
CC(=C(CCOP(=O)(O)O)SC(=O)c1ccccc1)N(C=O)Cc1cnc(C)nc1N	0.94	0.83
OC[C@H]1O[C@@H](O[C@@H]2[C@@H](CO)O[C@](O)(CO)[C@H]2O)[C@H](O)[C@@H](O)[C@H]1O	0.84	0.77
Cn1cnc([N+](=O)[O-])c1Sc1ncnc2nc[nH]c12	1.08	1
CCn1cc(C(=O)O)c(=O)c2cnc(N3CCNCC3)nc21	0.93	1
CN1CCC(OC(c2ccccc2)c2ccccc2)CC1	0.89	0.91
NC(COCc1ccccc1)C(=O)O (stereo not drawn)	0.85	0.85
N=C(N)c1ccc(OCCCCCOc2ccc(C(=N)N)cc2)cc1	0.49	0.39
CC(C)COCC(CN(Cc1ccccc1)c1ccccc1)N1CCCC1 (stereo not drawn)	0.86	0.81
Nc1ncnc2c1ncn2[C@@H]1O[C@H](CO)[C@@H](O)[C@@H]1O	0.8	0.81
CN(C)CCC=C1c2ccccc2CCc2ccccc21	0.9	0.92
O=C(O)C1=CCNCC1	0.87	0.84
